In the assay the target is myc-BirA*-eIF3A fusion protein (UniProt Q14152). Kind of assay: co-IP; cells transfected with the myc-BirA*-eIF3A plasmid as for BioID; RIPA lysate, anti-c-Myc magnetic beads overnight at 4 °C, three washes with RIPA buffer; Western blot for the endogenous partner. In general terms: A western blot detects proteins with antibodies after separation by electrophoresis.

By UniProt entry, the sequences of proteins in these tests, tags left out.
UniProt Q14152: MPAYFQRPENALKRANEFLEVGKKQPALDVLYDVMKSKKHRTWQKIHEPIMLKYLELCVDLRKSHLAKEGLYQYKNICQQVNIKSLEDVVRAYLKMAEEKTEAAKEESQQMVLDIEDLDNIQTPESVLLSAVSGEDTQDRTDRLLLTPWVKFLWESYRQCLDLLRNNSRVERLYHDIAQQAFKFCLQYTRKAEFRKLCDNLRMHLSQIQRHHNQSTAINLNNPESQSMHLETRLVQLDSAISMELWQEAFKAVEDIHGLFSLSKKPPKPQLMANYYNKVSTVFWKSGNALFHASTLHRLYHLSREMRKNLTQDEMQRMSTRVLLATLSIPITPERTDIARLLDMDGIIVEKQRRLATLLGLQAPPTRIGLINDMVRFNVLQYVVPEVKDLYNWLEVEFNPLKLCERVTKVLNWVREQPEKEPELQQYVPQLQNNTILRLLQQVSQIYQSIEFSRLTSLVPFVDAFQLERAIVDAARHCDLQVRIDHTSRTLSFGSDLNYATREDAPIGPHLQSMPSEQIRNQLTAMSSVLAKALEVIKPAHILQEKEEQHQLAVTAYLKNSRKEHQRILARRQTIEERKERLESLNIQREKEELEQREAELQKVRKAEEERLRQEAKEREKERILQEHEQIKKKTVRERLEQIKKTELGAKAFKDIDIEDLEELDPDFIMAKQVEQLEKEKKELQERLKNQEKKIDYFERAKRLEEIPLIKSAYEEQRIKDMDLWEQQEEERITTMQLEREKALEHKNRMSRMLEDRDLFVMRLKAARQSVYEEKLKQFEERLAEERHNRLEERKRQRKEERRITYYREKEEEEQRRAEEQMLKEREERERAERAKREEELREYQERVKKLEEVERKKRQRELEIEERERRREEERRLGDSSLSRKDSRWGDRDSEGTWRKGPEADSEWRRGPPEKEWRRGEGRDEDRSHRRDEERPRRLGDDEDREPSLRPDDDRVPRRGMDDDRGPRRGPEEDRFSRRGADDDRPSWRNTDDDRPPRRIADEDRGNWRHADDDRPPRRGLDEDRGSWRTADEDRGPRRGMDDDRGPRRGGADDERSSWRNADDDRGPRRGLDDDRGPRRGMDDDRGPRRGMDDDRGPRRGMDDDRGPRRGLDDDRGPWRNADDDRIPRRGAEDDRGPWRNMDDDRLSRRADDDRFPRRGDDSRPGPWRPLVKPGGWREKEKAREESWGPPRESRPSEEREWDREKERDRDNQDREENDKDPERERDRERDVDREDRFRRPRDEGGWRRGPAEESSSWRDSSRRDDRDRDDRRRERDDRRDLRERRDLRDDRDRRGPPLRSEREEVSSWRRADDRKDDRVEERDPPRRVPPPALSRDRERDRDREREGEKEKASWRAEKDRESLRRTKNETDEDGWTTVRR
UniProt P67809: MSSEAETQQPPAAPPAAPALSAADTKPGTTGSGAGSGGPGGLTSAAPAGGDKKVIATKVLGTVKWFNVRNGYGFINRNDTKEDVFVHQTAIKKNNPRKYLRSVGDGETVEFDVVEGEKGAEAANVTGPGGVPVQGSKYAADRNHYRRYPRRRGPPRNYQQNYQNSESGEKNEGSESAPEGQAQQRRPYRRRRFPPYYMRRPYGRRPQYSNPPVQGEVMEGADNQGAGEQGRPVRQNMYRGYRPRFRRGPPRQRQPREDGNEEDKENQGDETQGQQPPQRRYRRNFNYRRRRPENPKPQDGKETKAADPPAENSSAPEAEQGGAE

No constants are given. Whether binding was seen depends on the method and setting. Binding seen in cells or lysates may run through a third protein. Some results given as binding are weak or reduced against the parent protein; the word gives no strength.

Turning to YB-1 (from UniProt P67809 1-324), the binding entry is listed as “binds”.

Source of the values: publication PMC7999522.
